Laboratory results: the supplement of paper PMC6411743
± gives the standard deviation of the averaged measurements. Only a part is listed here, and it is no random draw.

The chains behind the UniProt entries cited, without tags or fusion partners. Where a name states a change or a piece, a line headed by the entry shows the natural chain unless it says otherwise.
UniProt Q9NV06: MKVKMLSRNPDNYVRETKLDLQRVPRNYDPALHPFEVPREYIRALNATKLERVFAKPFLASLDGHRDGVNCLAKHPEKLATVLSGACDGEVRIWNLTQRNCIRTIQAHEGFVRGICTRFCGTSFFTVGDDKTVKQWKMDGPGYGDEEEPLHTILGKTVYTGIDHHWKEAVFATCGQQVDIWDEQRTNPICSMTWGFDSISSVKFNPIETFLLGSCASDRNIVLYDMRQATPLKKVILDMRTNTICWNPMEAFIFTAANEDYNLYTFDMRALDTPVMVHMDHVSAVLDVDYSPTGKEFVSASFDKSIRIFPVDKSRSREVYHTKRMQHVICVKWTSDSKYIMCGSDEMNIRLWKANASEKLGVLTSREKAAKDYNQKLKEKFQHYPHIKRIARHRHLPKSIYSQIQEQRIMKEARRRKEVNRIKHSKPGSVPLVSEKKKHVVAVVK
UniProt Q5HYA8: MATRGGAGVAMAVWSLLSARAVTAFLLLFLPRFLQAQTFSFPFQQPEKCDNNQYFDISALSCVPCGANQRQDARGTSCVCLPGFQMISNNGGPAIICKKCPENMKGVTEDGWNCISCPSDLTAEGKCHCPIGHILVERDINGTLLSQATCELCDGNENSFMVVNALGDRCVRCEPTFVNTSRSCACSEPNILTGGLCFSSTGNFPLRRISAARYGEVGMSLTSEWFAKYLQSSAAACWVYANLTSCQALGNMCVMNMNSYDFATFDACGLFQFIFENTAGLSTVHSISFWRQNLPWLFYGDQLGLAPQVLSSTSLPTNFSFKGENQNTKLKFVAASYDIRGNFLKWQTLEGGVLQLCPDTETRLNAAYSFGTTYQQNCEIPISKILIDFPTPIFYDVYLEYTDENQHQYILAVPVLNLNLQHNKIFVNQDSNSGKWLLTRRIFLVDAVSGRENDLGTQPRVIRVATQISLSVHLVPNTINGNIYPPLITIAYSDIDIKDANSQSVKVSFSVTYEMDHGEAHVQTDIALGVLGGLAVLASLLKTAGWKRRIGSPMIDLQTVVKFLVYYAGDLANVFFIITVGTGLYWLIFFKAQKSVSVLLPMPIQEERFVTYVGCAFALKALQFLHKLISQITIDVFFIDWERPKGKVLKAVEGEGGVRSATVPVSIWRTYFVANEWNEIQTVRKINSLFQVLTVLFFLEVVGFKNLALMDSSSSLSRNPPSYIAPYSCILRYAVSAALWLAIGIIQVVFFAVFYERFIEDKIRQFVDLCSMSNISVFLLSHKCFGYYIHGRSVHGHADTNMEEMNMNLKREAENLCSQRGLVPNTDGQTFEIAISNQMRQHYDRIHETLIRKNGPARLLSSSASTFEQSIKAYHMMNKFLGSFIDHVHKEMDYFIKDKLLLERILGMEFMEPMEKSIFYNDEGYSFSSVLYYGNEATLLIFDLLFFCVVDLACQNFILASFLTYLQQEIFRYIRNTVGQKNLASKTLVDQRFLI
UniProt Q9BV38: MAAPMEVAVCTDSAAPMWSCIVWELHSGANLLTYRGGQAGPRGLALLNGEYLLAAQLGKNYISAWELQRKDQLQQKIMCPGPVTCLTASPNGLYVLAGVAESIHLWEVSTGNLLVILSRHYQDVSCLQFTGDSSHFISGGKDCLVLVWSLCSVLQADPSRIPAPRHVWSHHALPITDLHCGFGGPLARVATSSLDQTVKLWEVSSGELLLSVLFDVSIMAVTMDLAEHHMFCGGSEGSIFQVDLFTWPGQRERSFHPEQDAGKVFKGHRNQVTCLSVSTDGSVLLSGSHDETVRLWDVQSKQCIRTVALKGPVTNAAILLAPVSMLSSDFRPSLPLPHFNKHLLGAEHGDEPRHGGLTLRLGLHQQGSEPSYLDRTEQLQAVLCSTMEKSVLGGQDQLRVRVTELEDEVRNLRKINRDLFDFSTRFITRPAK
UniProt Q9H299: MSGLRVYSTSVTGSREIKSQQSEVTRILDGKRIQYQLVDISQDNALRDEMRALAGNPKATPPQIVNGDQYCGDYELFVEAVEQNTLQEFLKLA
UniProt Q7Z3E5: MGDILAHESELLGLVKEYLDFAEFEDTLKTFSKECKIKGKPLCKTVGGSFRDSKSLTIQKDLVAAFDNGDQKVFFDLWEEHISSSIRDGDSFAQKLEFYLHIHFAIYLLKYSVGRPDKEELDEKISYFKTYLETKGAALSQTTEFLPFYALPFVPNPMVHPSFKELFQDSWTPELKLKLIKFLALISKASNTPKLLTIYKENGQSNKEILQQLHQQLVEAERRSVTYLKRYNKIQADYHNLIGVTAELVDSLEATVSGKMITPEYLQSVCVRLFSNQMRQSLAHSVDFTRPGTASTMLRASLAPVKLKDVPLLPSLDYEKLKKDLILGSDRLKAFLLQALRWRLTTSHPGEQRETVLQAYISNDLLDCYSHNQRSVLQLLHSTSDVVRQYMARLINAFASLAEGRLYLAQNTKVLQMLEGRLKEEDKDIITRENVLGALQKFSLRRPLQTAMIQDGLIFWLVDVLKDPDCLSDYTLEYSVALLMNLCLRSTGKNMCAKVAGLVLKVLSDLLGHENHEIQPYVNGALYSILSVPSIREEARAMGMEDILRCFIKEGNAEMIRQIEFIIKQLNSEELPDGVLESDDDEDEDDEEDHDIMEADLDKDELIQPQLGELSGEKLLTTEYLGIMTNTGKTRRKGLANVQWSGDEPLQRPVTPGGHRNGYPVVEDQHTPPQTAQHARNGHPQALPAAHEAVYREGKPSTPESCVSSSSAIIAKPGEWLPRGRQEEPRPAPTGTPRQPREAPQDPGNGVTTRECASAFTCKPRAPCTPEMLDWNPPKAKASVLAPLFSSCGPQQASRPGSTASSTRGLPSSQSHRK
UniProt Q14168: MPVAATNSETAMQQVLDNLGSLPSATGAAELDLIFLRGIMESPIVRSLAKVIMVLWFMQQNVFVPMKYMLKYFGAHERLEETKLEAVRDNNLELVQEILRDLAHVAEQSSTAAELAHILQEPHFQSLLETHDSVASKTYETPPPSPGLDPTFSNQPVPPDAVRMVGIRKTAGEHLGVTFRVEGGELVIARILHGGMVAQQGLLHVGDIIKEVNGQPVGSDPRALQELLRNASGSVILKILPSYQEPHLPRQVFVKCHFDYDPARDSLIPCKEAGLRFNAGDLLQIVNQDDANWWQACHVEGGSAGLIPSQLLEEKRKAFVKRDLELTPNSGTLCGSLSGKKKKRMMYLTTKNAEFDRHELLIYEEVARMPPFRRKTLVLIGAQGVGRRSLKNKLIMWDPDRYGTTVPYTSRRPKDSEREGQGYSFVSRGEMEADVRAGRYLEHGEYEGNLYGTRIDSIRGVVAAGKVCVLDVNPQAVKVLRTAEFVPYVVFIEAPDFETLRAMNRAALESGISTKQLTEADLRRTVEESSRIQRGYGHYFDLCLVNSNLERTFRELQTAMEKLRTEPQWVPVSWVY
UniProt P31641: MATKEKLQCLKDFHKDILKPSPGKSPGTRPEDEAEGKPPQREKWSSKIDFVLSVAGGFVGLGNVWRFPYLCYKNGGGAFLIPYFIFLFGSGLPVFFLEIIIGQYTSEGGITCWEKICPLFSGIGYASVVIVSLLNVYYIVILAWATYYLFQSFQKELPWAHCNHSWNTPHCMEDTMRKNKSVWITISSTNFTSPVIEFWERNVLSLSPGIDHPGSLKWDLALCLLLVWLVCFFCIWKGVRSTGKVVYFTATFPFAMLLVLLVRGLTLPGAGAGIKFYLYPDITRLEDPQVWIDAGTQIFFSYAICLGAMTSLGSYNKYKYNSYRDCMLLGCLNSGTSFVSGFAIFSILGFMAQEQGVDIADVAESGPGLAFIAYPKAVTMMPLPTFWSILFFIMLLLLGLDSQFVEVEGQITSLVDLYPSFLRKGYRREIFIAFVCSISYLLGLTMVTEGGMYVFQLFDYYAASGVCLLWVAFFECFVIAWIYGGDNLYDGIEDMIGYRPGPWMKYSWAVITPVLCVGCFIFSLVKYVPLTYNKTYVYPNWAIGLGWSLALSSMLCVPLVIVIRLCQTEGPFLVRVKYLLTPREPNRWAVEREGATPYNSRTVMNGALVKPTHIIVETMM
UniProt O15315: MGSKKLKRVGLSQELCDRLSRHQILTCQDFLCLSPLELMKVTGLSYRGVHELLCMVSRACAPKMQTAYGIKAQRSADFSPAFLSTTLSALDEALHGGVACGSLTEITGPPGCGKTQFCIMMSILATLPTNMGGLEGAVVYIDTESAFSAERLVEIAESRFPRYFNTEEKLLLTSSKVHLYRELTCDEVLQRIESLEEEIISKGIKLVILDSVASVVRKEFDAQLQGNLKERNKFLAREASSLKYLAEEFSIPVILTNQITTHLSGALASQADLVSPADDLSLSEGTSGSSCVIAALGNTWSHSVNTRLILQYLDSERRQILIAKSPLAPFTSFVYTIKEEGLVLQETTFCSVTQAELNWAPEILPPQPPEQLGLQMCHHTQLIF
UniProt P22061: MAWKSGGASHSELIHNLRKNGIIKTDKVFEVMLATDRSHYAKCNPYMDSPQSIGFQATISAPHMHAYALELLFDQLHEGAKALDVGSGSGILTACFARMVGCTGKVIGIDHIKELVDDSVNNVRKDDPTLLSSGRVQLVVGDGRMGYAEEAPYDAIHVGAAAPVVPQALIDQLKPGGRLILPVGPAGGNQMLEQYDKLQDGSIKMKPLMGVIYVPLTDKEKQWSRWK
UniProt Q5TAX3: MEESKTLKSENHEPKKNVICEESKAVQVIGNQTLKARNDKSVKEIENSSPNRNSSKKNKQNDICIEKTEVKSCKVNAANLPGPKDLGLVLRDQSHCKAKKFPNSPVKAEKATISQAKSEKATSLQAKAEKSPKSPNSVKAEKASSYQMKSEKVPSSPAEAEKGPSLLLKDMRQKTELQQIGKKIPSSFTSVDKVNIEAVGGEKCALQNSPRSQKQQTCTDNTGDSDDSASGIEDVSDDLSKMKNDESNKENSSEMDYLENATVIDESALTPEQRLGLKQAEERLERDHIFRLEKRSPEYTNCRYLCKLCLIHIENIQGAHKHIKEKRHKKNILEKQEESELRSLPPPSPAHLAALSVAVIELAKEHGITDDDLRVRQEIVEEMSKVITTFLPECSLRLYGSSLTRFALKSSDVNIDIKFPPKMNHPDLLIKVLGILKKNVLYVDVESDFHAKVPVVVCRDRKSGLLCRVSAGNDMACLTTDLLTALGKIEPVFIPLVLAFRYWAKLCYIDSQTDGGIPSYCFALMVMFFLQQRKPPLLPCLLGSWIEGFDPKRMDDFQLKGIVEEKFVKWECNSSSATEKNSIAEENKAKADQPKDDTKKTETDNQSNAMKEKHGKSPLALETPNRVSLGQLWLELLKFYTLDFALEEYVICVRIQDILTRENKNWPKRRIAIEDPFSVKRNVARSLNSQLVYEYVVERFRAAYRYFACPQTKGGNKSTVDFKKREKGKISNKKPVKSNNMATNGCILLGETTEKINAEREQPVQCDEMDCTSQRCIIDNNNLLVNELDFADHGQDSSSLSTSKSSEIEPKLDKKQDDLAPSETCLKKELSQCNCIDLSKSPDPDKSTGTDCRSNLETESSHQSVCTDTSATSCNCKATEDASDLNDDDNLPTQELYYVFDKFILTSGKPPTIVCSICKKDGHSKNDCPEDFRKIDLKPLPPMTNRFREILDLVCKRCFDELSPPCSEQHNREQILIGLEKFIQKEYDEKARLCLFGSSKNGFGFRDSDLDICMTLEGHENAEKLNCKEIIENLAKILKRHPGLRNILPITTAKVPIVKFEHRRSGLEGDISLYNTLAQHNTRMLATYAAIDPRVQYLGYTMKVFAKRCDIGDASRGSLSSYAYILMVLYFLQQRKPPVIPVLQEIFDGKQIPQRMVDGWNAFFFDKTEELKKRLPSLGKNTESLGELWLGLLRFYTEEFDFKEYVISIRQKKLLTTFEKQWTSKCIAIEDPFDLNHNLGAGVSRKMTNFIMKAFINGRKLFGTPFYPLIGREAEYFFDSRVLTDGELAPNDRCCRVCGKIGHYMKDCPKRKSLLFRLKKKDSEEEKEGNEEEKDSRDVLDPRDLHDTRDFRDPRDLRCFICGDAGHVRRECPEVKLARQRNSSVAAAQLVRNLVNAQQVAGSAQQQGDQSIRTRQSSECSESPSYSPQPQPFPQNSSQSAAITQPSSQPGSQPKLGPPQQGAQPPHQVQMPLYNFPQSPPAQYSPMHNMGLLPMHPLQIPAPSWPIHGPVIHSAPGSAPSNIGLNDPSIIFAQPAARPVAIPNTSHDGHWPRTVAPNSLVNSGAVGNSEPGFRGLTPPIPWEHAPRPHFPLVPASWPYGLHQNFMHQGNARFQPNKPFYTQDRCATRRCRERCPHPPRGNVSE
UniProt Q9NXU5: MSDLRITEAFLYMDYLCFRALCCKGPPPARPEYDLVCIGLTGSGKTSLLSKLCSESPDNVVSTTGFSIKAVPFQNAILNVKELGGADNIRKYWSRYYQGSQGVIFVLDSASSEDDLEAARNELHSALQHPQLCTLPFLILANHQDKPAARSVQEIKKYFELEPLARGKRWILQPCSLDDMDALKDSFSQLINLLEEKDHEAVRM

Compound: Nc1ncnc2c1ncn2[C@@H]1O[C@H](COP(=O)(O)OP(=O)(O)OP(=O)(O)O)[C@@H](O)[C@H]1O [adenosine triphosphate]
Assay: NP40-soluble protein abundance relative to vehicle (solubility fold change) (ratio); higher = more soluble protein in presence of ATP
Outline: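 Crude Jurkat lysate, prepared by Dounce homogenisation, was exposed to eight concentrations from 0.1 to 10 mM for 10 min at room temperature and then 3 min at 37 °C. Solubilisation used 0.8% NP40 with benzonase for 60 min at 4 °C, followed by ultracentrifugation and TMT labelling of the supernatant for LC-MS/MS. After vsn normalisation of intensities, each value is the fold change against the detergent-processed vehicle within each replicate, across three independent experiments.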

Target	NP40-soluble protein abundance (concentration: 1mM)	NP40-soluble protein abundance (concentration: 2mM)	NP40-soluble protein abundance (concentration: 4mM)	NP40-soluble protein abundance (concentration: 6mM)	NP40-soluble protein abundance (concentration: 8mM)	NP40-soluble protein abundance (concentration: 10mM)
A0A087WT20|Q9NV06 (UniProt Q9NV06)	1.05 ± 0.061	1.04 ± 0.12	1.04 ± 0.13	0.993 ± 0.086	1 ± 0.1	1.05 ± 0.045
A0A0D9SFR6|Q86XP1 and related entries (UniProt Q86XP1)	1.06 ± 0.051	1.03 ± 0.055	1.08 ± 0.098	1.06 ± 0.035	0.98 ± 0.086	1.03 ± 0.051
A0A0C4DFP8|Q5HYA8 (UniProt Q5HYA8)	1.01 ± 0.12	0.885 ± 0.14	0.9429 ± 0.0073	0.96 ± 0.14	0.91067 ± 0.00083	0.953 ± 0.12
A0A0A0MTL5|D6R9R7 and related entries (UniProt Q13309)	1.08 ± 0.083	1.02 ± 0.12	0.977 ± 0.03	0.991 ± 0.059	1.02 ± 0.11	1.04 ± 0.16
A0A087WVB5|Q75MD7 and related entries (UniProt Q8WXX7)	0.963 ± 0.12	0.987 ± 0.04	1.11 ± 0.12	1.38 ± 0.094	1.3 ± 0.22	1.34 ± 0.32
A0A0B4J2A4|P42765 (UniProt P42765)	0.997 ± 0.015	0.9928 ± 0.006	0.945 ± 0.014	0.996 ± 0.025	0.951 ± 0.012	0.946 ± 0.019
A0A0A0MQU0|Q9BV38 and related entries (UniProt Q9BV38)	0.935 ± 0.11	0.973 ± 0.071	0.964 ± 0.078	0.914 ± 0.062	0.974 ± 0.037	1 ± 0.056
A0A087WXN9|Q765P7 (UniProt Q765P7)	1 ± 0.051	1.02 ± 0.012	1.04 ± 0.05	1.02 ± 0.011	1.01 ± 0.036	0.974 ± 0.041
A0A087WSW9|A0A087WSY9|Q16881 and related entries (UniProt Q16881)	0.997 ± 0.044	0.979 ± 0.04	0.946 ± 0.036	0.931 ± 0.11	0.967 ± 0.047	0.95 ± 0.041
A0A0C4DGQ8|Q6IAN0 (UniProt Q6IAN0)	1.1 ± 0.18	1.04 ± 0.12	1.04 ± 0.055	0.977 ± 0.091	1.14 ± 0.12	1.08 ± 0.15
A0A0B4J1V9|Q9NRZ9 and related entries (UniProt Q9NRZ9)	1.19 ± 0.037	1.209 ± 0.0039	1.21 ± 0.028	1.21 ± 0.034	1.25 ± 0.022	1.22 ± 0.033
A0A0A0MT83|P26440 (UniProt P26440)	1.05 ± 0.11	1.01 ± 0.069	1.01 ± 0.092	0.96 ± 0.11	1.01 ± 0.079	0.999 ± 0.077
A0A0A0MRP2|O14772 and related entries (UniProt O14772)	1.13 ± 0.22	1.12 ± 0.14	0.967 ± 0.13	0.999 ± 0.27	0.956 ± 0.059	1.02 ± 0.11
A0A087WVF4|O14646 and related entries (UniProt O14646)	0.982 ± 0.03	1.03 ± 0.047	1.09 ± 0.05	1.14 ± 0.032	1.14 ± 0.059	1.26 ± 0.046
A0A087WV23|Q5T123 and related entries (UniProt Q9H299)	0.907 ± 0.066	0.921 ± 0.048	0.929 ± 0.065	0.956 ± 0.068	0.907 ± 0.049	0.846 ± 0.056
A0A087WUD1 (UniProt Q6DD87)	0.968 ± 0.059	0.968 ± 0.014	0.969 ± 0.012	0.956 ± 0.042	0.965 ± 0.014	0.976 ± 0.03
A0A087X1I8|Q7Z3E5 and related entries (UniProt Q7Z3E5)	0.99 ± 0.077	1.01 ± 0.063	0.987 ± 0.072	0.935 ± 0.097	0.965 ± 0.049	1.02 ± 0.14
A0A0A0MRU0|A0A0C4DH75|A0A0D9SFF8|B4DZ84 and related entries (UniProt Q14168)	1.02 ± 0.037	1.03 ± 0.041	1.09 ± 0.054	1.01 ± 0.05	1.062 ± 0.0076	1.1 ± 0.13
A0A087X0M4|Q9BWU0 (UniProt Q9BWU0)	1 ± 0.034	1 ± 0.029	1.01 ± 0.024	1.02 ± 0.03	1.02 ± 0.033	1.03 ± 0.043
A0A087WY96|P31641 (UniProt P31641)	0.947 ± 0.055	0.979 ± 0.056	0.88 ± 0.038	0.903 ± 0.038	0.899 ± 0.035	0.914 ± 0.032
A0A075B7F8|A8CG34 and related entries (UniProt Q96HA1+A8CG34)	0.918 ± 0.04	0.992 ± 0.061	1.22 ± 0.29	1.1 ± 0.065	1.13 ± 0.14	1.3 ± 0.16
A0A0A0MS18|C9JYJ0 and related entries (UniProt O15315)	0.942 ± 0.019	0.999 ± 0.05	1.02 ± 0.09	0.978 ± 0.15	1.15 ± 0.11	1.1 ± 0.042
A0A0A0MR66	1.11 ± 0.047	1.12 ± 0.05	1.17 ± 0.051	1.26 ± 0.076	1.24 ± 0.037	1.27 ± 0.038
A0A0A0MRJ6|C9J0F2 and related entries (UniProt P22061)	0.962 ± 0.061	0.982 ± 0.044	0.935 ± 0.025	0.9696 ± 0.005	0.958 ± 0.026	0.918 ± 0.017
A0A0A0MR87|E9PSF2 and related entries (UniProt Q15468)	0.885 ± 0.01	0.866 ± 0.098	0.916 ± 0.059	0.765 ± 0.1	0.865 ± 0.018	0.8448 ± 0.0015
A0A0C4DFM7|Q5TAX3 (UniProt Q5TAX3)	0.971 ± 0.064	0.9704 ± 0.0026	0.977 ± 0.026	1 ± 0.03	0.979 ± 0.035	0.989 ± 0.061
A0A0C4DGA6|Q14527 (UniProt Q14527)	1.06 ± 0.011	1.05 ± 0.018	1.03 ± 0.003	1.07 ± 0.027	1.07 ± 0.019	1.06 ± 0.032
A0A087WUW9|Q9NXU5 (UniProt Q9NXU5)	0.936 ± 0.098	1.016 ± 0.0069	0.996 ± 0.043	0.95 ± 0.075	0.978 ± 0.043	0.958 ± 0.025

Given field by field: entries from further up.
A0A0A0MR87|E9PSF2 and related entries (UniProt Q15468)
  NP40-soluble protein abundance (concentration: 1mM): 0.885 ± 0.01; NP40-soluble protein abundance (concentration: 2mM): 0.866 ± 0.098; NP40-soluble protein abundance (concentration: 4mM): 0.916 ± 0.059; NP40-soluble protein abundance (concentration: 6mM): 0.765 ± 0.1; NP40-soluble protein abundance (concentration: 8mM): 0.865 ± 0.018; NP40-soluble protein abundance (concentration: 10mM): 0.8448 ± 0.0015
A0A0C4DFM7|Q5TAX3 (UniProt Q5TAX3)
  NP40-soluble protein abundance (concentration: 1mM): 0.971 ± 0.064; NP40-soluble protein abundance (concentration: 2mM): 0.9704 ± 0.0026; NP40-soluble protein abundance (concentration: 4mM): 0.977 ± 0.026; NP40-soluble protein abundance (concentration: 6mM): 1 ± 0.03; NP40-soluble protein abundance (concentration: 8mM): 0.979 ± 0.035; NP40-soluble protein abundance (concentration: 10mM): 0.989 ± 0.061
